Reference: PubChem BioAssay AID504467 (National Center for Advancing Translational Sciences (NCATS), 2011)
Screen size: about 330,000 compounds; about 7,700 (2.3%) were called active. Inconclusive results, whose numbers are uncertain, are shown with a selection of clear calls. Calls come from the whole dose curve; as a rule, active = well fitted inhibition curve with a large enough effect; inconclusive = small, poorly fitted or top-dose-only effect, or effect the other way; inactive = flat fitted curve, though single readings scatter. Potencies of inconclusive entries are doubtful fits and often do not repeat.
Potency is the fitted concentration of half-maximal effect.

Assay: qHTS screen for small molecules that inhibit ELG1-dependent DNA repair in human embryonic kidney (HEK293T) cells expressing luciferase-tagged ELG1; note: nearly all actives have a fitted effect of over 55% in size
Settings: HEK293T ELG1-luciferase reporter, luminescence, 16 h, DNA damage induced by 5-fluorouridine; series mostly up to 46.1 µM
Text: NIH Molecular Libraries Probe Production Network [MLPCN] NIH Chemical Genomics Center [NCGC] MLPCN Grant: 1 R03 MH092164-01 Assay Provider: Kyungjae Myung, NHGRI, NIH Keywords: MLPCN, qHTS, NCGC, genotoxicity, cancer Assay Overview: Cancer cells divide rapidly compared to normal cells in the body. During cell division, cancer cells need to duplicate their genome by DNA replication. The failure of genome duplication leads to cancer cells' death. Therefore, inhibitors of DNA replication could specifically kill cancer cells. Based on this concept, many chemotherapeutic agents were developed and have been used to treat cancer patients. However, there are a limited number of agents available in the clinical setting, and some of those that do exist have low efficacy and severe side effects. Therefore, if we can find the compounds that effectively block DNA replication either by directly damaging DNA or by inhibiting other cellular mechanisms, the options for cancer treatment will be broadened. With this in mind, we developed a quantitative high-throughput ELG1-luciferase reporter gene assay. Small molecules that specifically block ELG1 function in response to DNA damage can be identified by monitoring the suppression of luciferase activity. Since ELG1 defines a pathway for repairing DNA damage, agents blocking ELG1 function can be used to sensitize cancer cells to chemotherapeutic agents whose mechanism of action involves the induction of DNA damage.
Assay Protocol Summary: For genotoxicity screening, 2,000 cells in 4 uL/well were dispensed into white, solid-bottom 1536-well plates using a solenoid-based dispenser. Following transfer of 1 uL 5-Fluorouridine and 23 nL compound or DMSO vehicle by a pin tool, the plates were incubated 16 hr at 37 °C and 5% CO2. 5 ul ONE-Glo (Promega) was then added to each plate and following a 30 min incubation at room temperature, luciferase activity was quantified on a ViewLux CCD-based plate reader.
With `CCOc1cc(C2NN=C(c3ccccc3)S2)ccc1OCc1ccc(F)cc1` (centres undefined) the Potency was inconclusive: 5.8 µM [activator, partial curve].
For `CCc1cccc(C)c1NS(=O)(=O)c1cc(Br)cnc1N`, the Potency was “inactive”.
For `C/C=C/c1ccc(OCC(O)CN(C)Cc2ccc(SC)cc2)c(OC)c1` (centres undefined), the Potency was “inactive”.
In the case of `C=CCc1cc(/C=C2/NC(=O)N(CC)C2=O)cc(OCC)c1OCc1ccc(C(=O)O)cc1`, the Potency is reported as inconclusive: 25.9 µM [inhibitor, partial curve].
For `CC(NC(=O)c1ccccc1F)c1cccc2ccccc12` (centres undefined), the Potency was “inactive”.
In the case of `CN(C)C(CNC(=O)c1ccc2ccccc2c1)c1ccco1` (centres undefined), the Potency is reported as inconclusive: 18.3 µM [activator, partial curve].
In the case of `CC(CCc1ccco1)NC(=O)Nc1cccc(F)c1` (centres undefined), the Potency is reported as “inactive”.
For `COc1cc(CC(=O)OCC(=O)Nc2ncc(Cl)cc2Cl)cc(OC)c1OC`, the Potency was “inactive”.
With `C#CCOCCOCCOCCNc1nc(N2CCN(C(=O)[C@H](CCC(=O)O)n3cc([C@@H](N)CO)nn3)CC2)nc(N2CCN(C(=O)[C@H](CCC(=O)O)n3cc([C@@H](N)CCSC)nn3)CC2)n1` the Potency was inconclusive: 16.4 µM [activator, partial curve, poor fit].
With `CC(C)(C)c1ccc(C(=O)c2c[nH]c(C(=O)NCCc3ccccn3)c2)cc1` the Potency was inconclusive: 18.3 µM [activator, partial curve].
For `O=C(Cc1ccc(F)cc1)Nc1ccc2[nH]ncc2c1`, the Potency was “inactive”.
With `Cc1ccc(-c2cn(-c3ccccc3)c(=S)[nH]2)cc1C` the Potency was inconclusive: 1.64 µM [activator, full curve].
With `CCCNC(=O)NC(=O)CSc1nc2ccccc2c(=O)n1Cc1ccncc1` the Potency was “inactive”.
With `CCOc1ccc(-c2onc(C(F)(F)F)c2-c2cscn2)c(O)c1` the Potency was inconclusive: 29.1 µM [inhibitor, single point].
For `COc1ccc(CCn2c(-c3ccc(C(C)(C)C)cc3)n[nH]c2=S)cc1OC`, the Potency was inconclusive: 20.6 µM [inhibitor, single point].
In the case of `CCCCC[n+]1ccn(C2=C([O-])c3ccccc3C(=O)/C2=N\S(=O)(=O)c2ccc(Cl)cc2)c1`, the Potency is reported as “inactive”.
For `CC1CCCN(c2ncnc3c2cnn3-c2ccccc2)C1` (centres undefined), the Potency was inconclusive: 0.231 µM [activator, partial curve].
With `COc1ccc2[nH]c(=O)c(CN(Cc3cccnc3)C(=O)Nc3ccccc3)cc2c1` the Potency was inconclusive: 22.4 µM [inhibitor, partial curve, poor fit].
With `CSc1nc(SCC(=O)NC(c2ccccc2)c2ccccc2)c2c3c(sc2n1)CN(C)CC3` the Potency was inconclusive: 29.1 µM [activator, single point].
For `O=C1c2ccccc2C(=O)N1CCCOc1ccccc1`, the Potency was inconclusive: 20.6 µM [activator, partial curve].
With `COc1cccc(SCC2CSc3nc4ccccc4c(=O)n32)c1` (centres undefined) the Potency was inconclusive: 29.1 µM [inhibitor, partial curve, poor fit].
For `CCCC(=O)NC(=S)Nc1ccc(NC(=O)C(C)C)c(OC)c1`, the Potency was “inactive”.
With `O=C(CN1CCC(C(O)(c2ccccc2)c2ccccc2)CC1)Nc1ccccc1` the Potency was inconclusive: 29.1 µM [inhibitor, single point].
For `COc1ccc(CCNC(=O)C2c3ccccc3C(=O)N2CCC(C)C)cc1OC` (centres undefined), the Potency was inconclusive: 2.91 µM [inhibitor, partial curve, poor fit].
In the case of `CN1C(=O)CC(NNC(=O)c2ccc(Cl)cc2)C1=O` (centres undefined), the Potency is reported as inconclusive: 35.5 µM [inhibitor, single point].
For `C=CCN(CC=C)C(=O)c1ccc(OC2CCN(S(=O)(=O)N(C)C)CC2)cc1`, the Potency was inconclusive: 20.6 µM [inhibitor, single point].
With `CSc1nc2ccccc2n1C(=O)NC1CCCCC1` the Potency was inconclusive: 14.6 µM [activator, partial curve].
For `CCC(=O)Nc1cc2nn(-c3ccc(C)cc3)nc2cc1C`, the Potency was inconclusive: 0.116 µM [activator, full curve, poor fit].
With `CC(C)N(C(C)C)S(=O)(=O)c1ccc(N2CCc3ccccc3C2)nc1` the Potency was inconclusive: 14.6 µM [activator, partial curve].
In the case of `Cn1cnc(S(=O)(=O)N2CCN(C(c3ccccc3)c3ccccc3)CC2)c1`, the Potency is reported as “inactive”.
In the case of `O=C(Nc1ccccc1C(=O)NCc1cccnc1)c1cccc([N+](=O)[O-])c1`, the Potency is reported as inconclusive: 20.6 µM [inhibitor, single point].
In the case of `Clc1ccc(-c2cn3c(n2)-c2ccccc2C3)cc1Cl`, the Potency is reported as inconclusive: 2.06 µM [activator, partial curve].
With `O=C(O)/C(=C\c1ccc(-c2ccccc2[N+](=O)[O-])o1)c1ccccc1` the Potency was “inactive”.
For `O=c1[nH]c2ccc([N+](=O)[O-])cc2nc1/C=C(\O)c1ccccc1`, the Potency was “inactive”.
In the case of `O=C(c1ccc2c(c1)[nH]c(=S)n1c3ccccc3nc21)N1CCN(c2ncccn2)CC1`, the Potency is reported as “inactive”.
In the case of `Cc1ccc(-c2nn(-c3ccccc3)cc2/C=N/NC(=O)CSc2nnc(C)n2-c2ccccc2)cc1`, the Potency is reported as inconclusive: 3.26 µM [inhibitor, partial curve].
In the case of `O=S(=O)(NCC(O)c1ccccc1)c1cc(Cl)sc1Cl` (centres undefined), the Potency is reported as “inactive”.
For `COc1ccc(NC(=O)NC2(C)CCS(=O)(=O)C2)cc1` (centres undefined), the Potency was inconclusive: 29.1 µM [activator, partial curve, poor fit].
For `COc1ccc(CC(=O)Nc2cccc(-c3nnc(-c4ccco4)o3)c2)cc1`, the Potency was inconclusive: 20.6 µM [inhibitor, partial curve].
In the case of `O=C(CSC1=NCCS1)Nc1nc2c(s1)CCCC2`, the Potency is reported as inconclusive: 14.6 µM [activator, partial curve].
With `CCOc1ccc2[nH]c3c(NCCN(C)C)ncnc3c2c1` the Potency was “inactive”.
With `Cc1nn(C2CCS(=O)(=O)C2)c2nc(C3CC3)cc(C(=O)Nc3cccc(C#N)c3)c12` (centres undefined) the Potency was “inactive”.
In the case of `CSc1ccc(C(c2c(C(=O)O)[nH]c3ccccc23)c2c(C(=O)O)[nH]c3ccccc23)cc1`, the Potency is reported as inconclusive: 35.5 µM [inhibitor, single point].
For `N#C/C(=C/c1cccs1)c1nc2ccccc2[nH]1`, the Potency was inconclusive: 4.61 µM [activator, single point].
In the case of `CN(C)c1ccc(/C=N/NC(=O)CCCO)cc1`, the Potency is reported as inconclusive: 16.4 µM [activator, single point].
In the case of `COc1ccccc1N1CCN(C(=O)/C=C/c2ccc(C)cc2)CC1`, the Potency is reported as “inactive”.
For `CCCCCN(C(=O)CCC(=O)OCCOc1cccc(Cl)c1)c1c(N)n(CCCC)c(=O)[nH]c1=O`, the Potency was “inactive”.
In the case of `COc1ccccc1N1CC(O)=C(c2nc3ccccc3s2)C1=N`, the Potency is reported as inconclusive: 29.1 µM [inhibitor, single point].
For `Cc1cccc(/C=C/c2onc(C)c2S(=O)(=O)N2CCC(C(=O)N3CCCCCC3)CC2)c1`, the Potency was inconclusive: 6.51 µM [inhibitor, partial curve].
With `CCCCN(C)S(=O)(=O)c1ccc(C(=O)Nc2nnc(-c3ccco3)o2)cc1` the Potency was inconclusive: 7.3 µM [inhibitor, partial curve].
In the case of `CC(C)(C)c1ccc(-c2nc(NCc3cccnc3)c3ccccc3n2)cc1`, the Potency is reported as inconclusive: 8.2 µM [activator, partial curve].
In the case of `CC(=O)N1CCC(C(=O)NC2CCCc3c2cnn3-c2cc(F)cc(F)c2)CC1` (centres undefined), the Potency is reported as “inactive”.
With `CC(=O)Nc1ccc(C(=O)Nc2nc(-c3cc(C)n(Cc4ccccc4)c3C)cs2)cc1` the Potency was inconclusive: 18.4 µM [inhibitor, partial curve].
In the case of `Cc1ccc(N(C(=O)Cc2cccs2)C(C(=O)NC2CCCC2)c2ccncc2)cc1` (centres undefined), the Potency is reported as “inactive”.
In the case of `CN(C)N(Cc1ccccc1)C(=O)C(O)(c1ccccc1)c1ccccc1`, the Potency is reported as inconclusive: 9.2 µM [inhibitor, partial curve].
With `NC(=O)c1ccc(Oc2ccc3c(c2)CCC3)c([N+](=O)[O-])c1` the Potency was “inactive”.
In the case of `Cc1cc(C(=O)Nc2cccc3c2O[C@@H](CN(C)S(C)(=O)=O)[C@H](C)CN([C@@H](C)CO)C3=O)n(C)n1`, the Potency is reported as “inactive”.
For `COc1cccc(-c2noc(C3CCCN(C(=O)Cc4ccccc4)C3)n2)c1` (centres undefined), the Potency was inconclusive: 0.164 µM [activator, full curve, poor fit].
With `Cc1ccc(O)c(NC(=O)c2cc(-c3cccs3)on2)c1` the Potency was inconclusive: 11.6 µM [activator, partial curve].
In the case of `CCOC(=O)C1C(=O)C=C(N2CCOCC2)CC1c1cccc(OC)c1` (centres undefined), the Potency is reported as “inactive”.
In the case of `Cc1csc(N(C(=O)c2cccc(S(=O)(=O)N3CCCC3)c2)c2ccccc2)n1`, the Potency is reported as active: 20.6 µM.
In the case of `Clc1cccc(Cl)c1COc1ccccc1CNn1cnnc1`, the Potency is reported as inconclusive: 29.1 µM [inhibitor, single point].
For `NC(=O)C1CCN(C(=O)c2ccc3ccccc3c2)CC1`, the Potency was inconclusive: 23.1 µM [activator, single point].
With `O=C(Cc1ccccc1)N1CCN=C1SCc1ccc([N+](=O)[O-])cc1` the Potency was inconclusive: 23.1 µM [inhibitor, single point].
With `COc1cc(OC)c2c(c1C(CCN1CCOCC1)c1ccc(N(C)C)cc1)OC(=O)CC2c1ccc(N(C)C)cc1` (centres undefined) the Potency was “inactive”.
In the case of `CCOc1ccc(S(=O)(=O)c2c(C(=O)c3ccccc3)cnc3cc4c(cc23)OCCO4)cc1`, the Potency is reported as “inactive”.
In the case of `CCCCCn1c(=S)[nH]c2ncccc2c1=O`, the Potency is reported as inconclusive: 25.9 µM [activator, single point].
With `Nn1c(SCC(=O)NC2CCCCCC2)nnc1C(F)(F)F` the Potency was inconclusive: 29.1 µM [activator, single point].
In the case of `Cc1ccccc1C(=O)NC(=S)Nc1sc2c(c1C#N)CCCC2`, the Potency is reported as inconclusive: 4.61 µM [activator, full curve].
